The values that follow come from PMC5440049.

Sequences of proteins named here, by UniProt entry; tags and fusion partners are left off. A change or cut given only in a name is not applied to a line headed by its entry. Residues count along the entry.
UniProt Q9UGM3, residues 20-2413: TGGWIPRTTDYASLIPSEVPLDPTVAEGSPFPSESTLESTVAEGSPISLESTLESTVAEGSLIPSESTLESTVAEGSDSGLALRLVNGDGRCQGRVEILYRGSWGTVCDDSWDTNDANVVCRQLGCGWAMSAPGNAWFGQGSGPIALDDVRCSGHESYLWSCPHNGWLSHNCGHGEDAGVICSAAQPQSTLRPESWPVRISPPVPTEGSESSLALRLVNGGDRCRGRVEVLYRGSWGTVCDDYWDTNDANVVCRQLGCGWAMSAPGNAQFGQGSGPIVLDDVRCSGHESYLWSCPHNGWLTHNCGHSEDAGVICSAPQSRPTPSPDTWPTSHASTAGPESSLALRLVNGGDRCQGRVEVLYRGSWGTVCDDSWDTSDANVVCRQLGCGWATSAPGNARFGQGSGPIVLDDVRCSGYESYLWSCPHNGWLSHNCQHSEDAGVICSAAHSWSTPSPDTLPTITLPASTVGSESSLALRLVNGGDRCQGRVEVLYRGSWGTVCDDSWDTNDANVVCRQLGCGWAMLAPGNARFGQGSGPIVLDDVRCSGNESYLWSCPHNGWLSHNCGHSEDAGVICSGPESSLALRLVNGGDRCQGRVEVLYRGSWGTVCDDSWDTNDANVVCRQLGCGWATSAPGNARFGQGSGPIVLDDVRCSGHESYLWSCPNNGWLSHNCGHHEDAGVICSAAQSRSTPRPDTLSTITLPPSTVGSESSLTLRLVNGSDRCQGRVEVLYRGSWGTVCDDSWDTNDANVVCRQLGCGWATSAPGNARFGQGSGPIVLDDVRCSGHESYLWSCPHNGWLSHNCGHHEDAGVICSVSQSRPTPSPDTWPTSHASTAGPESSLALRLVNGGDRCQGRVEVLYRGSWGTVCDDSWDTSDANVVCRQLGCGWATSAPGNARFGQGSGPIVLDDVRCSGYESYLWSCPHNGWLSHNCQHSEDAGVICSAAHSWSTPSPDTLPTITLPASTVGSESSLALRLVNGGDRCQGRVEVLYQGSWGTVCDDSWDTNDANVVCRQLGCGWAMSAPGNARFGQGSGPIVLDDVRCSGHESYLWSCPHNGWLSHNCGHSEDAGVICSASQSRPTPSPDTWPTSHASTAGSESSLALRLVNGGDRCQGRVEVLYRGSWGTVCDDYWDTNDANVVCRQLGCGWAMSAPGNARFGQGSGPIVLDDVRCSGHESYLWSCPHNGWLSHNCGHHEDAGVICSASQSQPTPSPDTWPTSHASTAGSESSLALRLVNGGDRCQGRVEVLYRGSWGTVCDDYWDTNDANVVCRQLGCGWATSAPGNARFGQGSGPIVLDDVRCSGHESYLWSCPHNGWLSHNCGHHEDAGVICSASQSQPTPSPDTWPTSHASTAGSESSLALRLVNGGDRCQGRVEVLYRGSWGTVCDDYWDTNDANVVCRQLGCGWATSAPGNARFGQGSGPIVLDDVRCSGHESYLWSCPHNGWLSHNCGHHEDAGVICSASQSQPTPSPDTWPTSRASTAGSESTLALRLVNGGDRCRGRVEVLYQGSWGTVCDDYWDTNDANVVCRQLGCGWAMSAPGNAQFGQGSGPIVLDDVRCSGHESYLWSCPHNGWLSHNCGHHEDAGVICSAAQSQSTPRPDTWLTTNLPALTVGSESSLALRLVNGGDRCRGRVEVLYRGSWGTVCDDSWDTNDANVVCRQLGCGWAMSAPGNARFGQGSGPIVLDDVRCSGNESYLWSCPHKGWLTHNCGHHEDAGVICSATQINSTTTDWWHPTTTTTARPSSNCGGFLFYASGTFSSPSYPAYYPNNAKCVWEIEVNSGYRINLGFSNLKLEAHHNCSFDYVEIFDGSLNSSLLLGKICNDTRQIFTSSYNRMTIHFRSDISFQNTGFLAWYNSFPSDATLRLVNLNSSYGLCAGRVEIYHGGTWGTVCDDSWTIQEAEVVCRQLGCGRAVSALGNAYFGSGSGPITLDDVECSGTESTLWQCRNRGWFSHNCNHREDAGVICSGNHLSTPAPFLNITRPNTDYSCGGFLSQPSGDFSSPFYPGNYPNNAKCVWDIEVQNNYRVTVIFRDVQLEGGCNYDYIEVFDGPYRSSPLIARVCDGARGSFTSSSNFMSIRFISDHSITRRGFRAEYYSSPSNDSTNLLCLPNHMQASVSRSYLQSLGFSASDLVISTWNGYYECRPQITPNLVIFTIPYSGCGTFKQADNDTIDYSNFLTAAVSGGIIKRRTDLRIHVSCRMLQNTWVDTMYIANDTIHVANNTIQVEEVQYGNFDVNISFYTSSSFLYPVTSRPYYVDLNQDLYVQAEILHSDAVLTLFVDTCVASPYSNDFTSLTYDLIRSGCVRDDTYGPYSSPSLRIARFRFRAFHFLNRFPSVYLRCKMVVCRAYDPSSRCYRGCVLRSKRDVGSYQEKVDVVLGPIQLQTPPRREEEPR

Results are given in words; binding and its absence hold for the method and conditions named. Some entries that bind do so weakly or less than the wild type.

The target in the assay is DMBT1 (Deleted in Malignant Brain Tumors 1) purified from human saliva (human (endogenous in saliva)) (UniProt Q9UGM3). The assay is described as follows: far-Western, overlay or dot blot; dot-immunoblot: 2 ul DMBT1 in PBS (400 ng/ul and serial dilutions) spotted on nitrocellulose, blocked with 5% BSA, incubated with undiluted pili-containing extract of PAO1 for 40 min at room temperature, washed 5 times with PBS, probed with anti-PilA antibody; only the target purified.

B1: pili extracted from P. aeruginosa strain PAO1 (type IV pili, polymer of the PilA major pilin subunit) (protein, UniProt P04739 7-149)
chain: FTLIELMIVVAIIGILAAIAIPQYQNYVARSEGASALATINPLKTTVEESLSRGIAGSKIKIGTTASTATETYVGVEPDANKLGVIAVAIEDSGAGDITFTFQTGTSSPKNATKVITLNRTADGVWACKSTQDPMFTPKGCDN
Regarding B1, the binding entry is listed as “binds”.
